For at least one entry, the source does not settle the construct or the ends of the probe. For part of these data: Negatives hold for the conditions tested. Tags and fusion partners may be left off the protein sequences shown. For part of these data: Where cells or extracts were used, other partners may take part.
Columns and labels:
[1] = target: T1, Tristetraprolin (TTP, ZFP36) (UniProt P26651); experiment: activity in cells; settings: protein in cells
T1 sequence (looked up, limits assumed): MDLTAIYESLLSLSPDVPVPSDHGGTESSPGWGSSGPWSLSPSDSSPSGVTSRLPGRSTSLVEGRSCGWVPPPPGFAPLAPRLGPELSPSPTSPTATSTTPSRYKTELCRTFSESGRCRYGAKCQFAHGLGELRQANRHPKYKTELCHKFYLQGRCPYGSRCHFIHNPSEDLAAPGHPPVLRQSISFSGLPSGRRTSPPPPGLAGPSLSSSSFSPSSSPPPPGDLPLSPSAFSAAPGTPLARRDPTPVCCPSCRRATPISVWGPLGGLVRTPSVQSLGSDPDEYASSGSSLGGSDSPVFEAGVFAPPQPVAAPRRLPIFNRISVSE

[2] = target: T1, Tristetraprolin (TTP, ZFP36); experiment: binding assay; settings: RNA immunoprecipitation + RT-PCR from A549 lysates, with or without UV; protein in cells

Sequence	functional effect ([1]; luciferase reporter not induced by TTP overexpression, variant of Claspin mRNA 3'UTR ARE1 (wild type))	functional effect ([1]; luciferase reporter (psiCHECK2) decreased about 5-fold on TTP depletion, increased by TTP overexpression)	binding result [2]
CAAUUCUGCAGUAUCUACAA [Claspin ARE1Mut]	not active		
CAAUUCUGCAGUAUUUACAA [Claspin mRNA 3'UTR ARE1 (wild type)]		5 fold	binds

Reference: patent publication US20230080252A1, “ANTICANCER ADJUVANT AND PHARMACEUTICAL COMPOSITION FOR TREATING ANTICANCER-AGENT-RESISTANT CANCER, AND KIT COMPRISING SAME” (DONG-A UNIVERSITY RESEARCH FOUNDATION FOR INDUSTRY-ACADEMY …, priority 2020, published 2023)
